From PubChem BioAssay (NCATS)
The shares of active, inactive and inconclusive entries below differ from those in the screen. Where the call is inconclusive, the potency comes from a doubtful curve fit. Activity calls are given as the source filed them. Calls come from the whole dose curve; as a rule, active = well fitted curve in the direction sought with a large enough effect; inconclusive = small, poorly fitted or top-dose-only effect, or another doubt; inactive = no such curve, though single readings can be large; an effect the other way counts as inactive or inconclusive.

By UniProt entry, the sequences of proteins in these tests, tags left out. Where a name states a change or a piece, a line headed by the entry shows the natural chain unless it says otherwise.
UniProt Q99816: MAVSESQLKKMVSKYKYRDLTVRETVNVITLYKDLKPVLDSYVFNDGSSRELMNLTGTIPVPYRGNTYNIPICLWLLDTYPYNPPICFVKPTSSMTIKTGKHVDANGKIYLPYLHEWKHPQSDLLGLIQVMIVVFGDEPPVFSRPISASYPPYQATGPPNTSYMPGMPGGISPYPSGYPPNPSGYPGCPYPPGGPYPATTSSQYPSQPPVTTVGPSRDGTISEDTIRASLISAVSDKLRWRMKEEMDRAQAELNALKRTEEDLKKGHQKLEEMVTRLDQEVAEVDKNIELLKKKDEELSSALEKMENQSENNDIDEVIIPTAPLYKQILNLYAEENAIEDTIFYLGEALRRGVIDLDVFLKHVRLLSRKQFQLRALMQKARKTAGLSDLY

Tested on: not listed separately
Test: qHTS screen for small molecules that inhibit ELG1-dependent DNA repair: Hit Confirmation with MMS Viability (AID 624251);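 note: viability read 16 h after compound addition; nearly all actives have a fitted effect of over 60% in size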
Conditions: Cell viability with MMS; series mostly up to 46.1 µM
Outline: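 MMS (final 10 µM) was co-dosed with compounds onto HEK293T cells carrying the ELG1-luc reporter; cell viability was quantified by CellTiter-Glo at 16 h.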
Potency is the fitted concentration of half-maximal effect.

| Compound | Potency |
| --- | --- |
| CCOc1cc(N2CCOCC2)c(OCC)cc1NC(=O)c1nn(CC)c(=O)c2ccccc12 | inconclusive: 35.3 µM [cytotoxic, single point] |
| Cc1ccc(NC(=O)CCc2nnc3ccc(N4CCC(C)CC4)nn23)nc1 | inactive |
| COc1ccc(NC(=O)CNC(=O)c2nn(-c3ccc(OC)c(Cl)c3)c(=O)c3ccccc23)c(OC)c1 | inactive |
| COc1ccccc1CCNC(=O)C(=O)NCC1CCCN1S(=O)(=O)c1ccccc1 (stereo not given) | inconclusive: 15.8 µM [cytotoxic, partial curve] |
| O=C1c2cc(F)ccc2-n2c1nc1ccccc1c2=O | active: 1.77 µM |
| CCOC(=O)c1cnc(-n2nc(C)cc2C)nc1Nc1ccc(O)cc1 | active: 2.81 µM |
| CCOc1ccc(C(C(=O)NCC2CCCO2)N(Cc2cccs2)C(=O)c2snc(C(N)=O)c2N)cc1 (stereo not given) | inconclusive: 11.2 µM [cytotoxic, partial curve] |
| Cc1ccc(C(C(=O)NCc2ccccc2)N(Cc2cccs2)C(=O)c2ccc3c(c2)OCCO3)cc1 (stereo not given) | inconclusive: 15.8 µM [cytotoxic, partial curve] |
| COc1cc2c(cc1OC)-c1cc(N3CCc4ccccc43)nc(=O)n1CC2 | inconclusive: 35.3 µM [cytotoxic, partial curve, poor fit] |
| COc1cc2cnc(-c3ccccc3)c(C(=O)c3ccc(OCc4ccccc4)cc3)c2cc1OC | active: 11.2 µM |
| CC(C)Nc1ncnc2ccc(Br)cc12 | active: 9.96 µM |
| CCOC(=O)Cn1c(=NC(=O)C(C)C)sc2c(C)cc(C)cc21 | inconclusive: 11.2 µM [cytotoxic, partial curve, poor fit] |
| CC1CCCCN1c1ncnc(N)c1[N+](=O)[O-] (stereo not given) | inconclusive: 1.77 µM [rising, partial curve] |
| CCOCCOC(=O)c1[nH]c2c(c1C)C(=O)CC(c1cc(OC)c(OC)c(OC)c1)C2 (stereo not given) | inconclusive: 4.99 µM [cytotoxic, full curve] |
| Fc1ccc(COc2ccc(Br)cc2CNCc2ccncc2)cc1 | inconclusive: 15.8 µM [cytotoxic, partial curve] |
| COc1ccccc1C(=O)Nc1ccc(C)c(S(=O)(=O)N2CCCCC2)c1 | inactive |
| COc1ccc(Cn2c(O)c(C=Nc3ccccc3C(=O)O)c3ccccc3c2=O)cc1 | active: 2.81 µM |

Target: Luciferin 4-monooxygenase (Photinus pyralis) (UniProt P08659)
Test: qHTS screen for small molecules that inhibit ELG1-dependent DNA repair: Hit Confirmation in Biochemical Luciferin Assay (AID 624253)
Conditions: purified firefly luciferase, luminescence counter-screen; series mostly up to 57.5 µM
Outline: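 Cell-free hit confirmation using firefly luciferase; light output measured by CCD imaging.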

| Compound | Potency |
| --- | --- |
| COc1cc(/C=C(\C#N)C(=O)Nc2cccc(C(=O)O)c2)ccc1OCc1ccc(Cl)cc1 | active: 16.4 µM |
| CCc1ccc(OCC(=O)Nc2ccc(-c3nc4ccccc4o3)c(O)c2)cc1 | inactive |
| O=C(NC1CCCCCCC1)c1cc(COc2ccc3ncccc3c2)on1 | inconclusive: 36.6 µM [inhibitor, partial curve, poor fit] |
| O=C(CCN1C(=O)NC2(CCCC2)C1=O)Nc1ccc(-c2nc3ccccc3s2)cc1 | active: 3.66 µM |
| Cc1ccc(NC(=O)c2ccc(OC(=O)c3ccco3)cc2)cc1 | inactive |
| N#Cc1cc2cc3c(cc2nc1SCC(=O)N1CCOCC1)OCCO3 | inconclusive: 46.1 µM [inhibitor, partial curve] |
| CCSc1nnc(NC(=O)c2csc(C)c2)s1 | inconclusive: 2.06 µM [inhibitor, partial curve, poor fit] |
| c1nc(CCO[C@H]2CCCCO2)cc2cc3c(cc12)OCO3 | active: 0.651 µM |
| COc1ccc(/C=C/c2ccc3ccccc3n2)cc1OC | inconclusive: 36.6 µM [inhibitor, single point] |
| Cc1cc(C(=O)COC(=O)c2cccnc2Cl)c(C)n1C | active: 0.259 µM |
| COc1ccc(/C=C/c2ccc3ccccc3n2)c(OC)c1 | inconclusive: 13 µM [inhibitor, partial curve, poor fit] |
| Cc1ccc(NC(=O)c2ccc(OC(=O)c3cc4ccccc4o3)cc2)cc1 | inconclusive: 36.6 µM [inhibitor, single point] |
| COc1cccc(/C=C/c2cnc3ccccc3n2)c1OC | active: 0.326 µM |

A portion from further up, as a working copy:

| Compound | Potency |
| --- | --- |
| COc1ccc(/C=C/c2ccc3ccccc3n2)cc1OC | inconclusive: 36.6 µM [inhibitor, single point] |
| Cc1cc(C(=O)COC(=O)c2cccnc2Cl)c(C)n1C | active: 0.259 µM |
| COc1ccc(/C=C/c2ccc3ccccc3n2)c(OC)c1 | inconclusive: 13 µM [inhibitor, partial curve, poor fit] |

Target: Tumor susceptibility gene 101 protein (Homo sapiens) (UniProt Q99816)
Test: qHTS Assay for Iinhibitors of HIV-1 Budding by Blocking the Interaction of PTAP/TSG101: Hit Validation (AID 651600); note: nearly all actives have a fitted effect of over 70% in size
Conditions: PTAP peptide/TSG101 UEV interaction, biochemical assay; series mostly up to 57.5 µM
Outline: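 Compounds are added to the Tsg101 binding domain (10 uM final) in pH 7.5 HEPES buffer. FITC-PTAP peptide follows at 50 nM final. After 20 min at r.t., polarized FITC emission is measured.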

| Compound | Potency |
| --- | --- |
| O=C(/C=C/c1ccc(Cl)cc1Cl)c1nc2ccccc2[nH]1 | active: 20.6 µM |
| CC1CCc2cccc3c2N1c1cc(C#N)c(C#N)cc1O3 (stereo not given) | inactive |
| CCCCOC(=O)c1ccc(NC(=O)/C(C#N)=C/c2ccc(-c3ccccc3)o2)cc1 | inactive |
| COc1ccc(/C=c2\s/c(=C/C(=O)c3ccc(C)cc3)[nH]c2=O)c(OC)c1 | inactive |
| CCNc1cccc2c1C(=O)N(C)C2=O | inconclusive: 32.6 µM [inhibitor, single point] |
| CCN(CC)C(=O)CSc1nnc2nnc3cc(OC)ccc3n12 | active: 29.1 µM |
| CC1CC=C2C(C#N)=C(N)C(C#N)(C#N)C(c3cccs3)C2C1 (stereo not given) | inconclusive: 29.1 µM [inhibitor, single point] |
| N=c1c(C(=O)NCC2CCCO2)cc2c(=O)n3ccccc3nc2n1Cc1cccnc1 (stereo not given) | inconclusive: 25.9 µM [inhibitor, partial curve, poor fit] |
| O=[N+]([O-])c1cc(Cl)cc(/C=N/n2cnnc2)c1O | inactive |
| O=S(=O)(Nc1cccc(-c2ccc(N3CCCCCC3)nn2)c1)c1cccc(F)c1 | inactive |
